{"source": "paper PMC12808100", "about": "“The non-catalytic DNA polymerase ε subunit is an NPF motif recognition protein” (Nature Communications, 2025)", "molecules": {"B1": {"name": "ABT1 (protein, UniProt Q9ULW3 1-272, looked up)", "Activator of basal …": "MEAEESEKAATEQEPLEGTEQTLDAEEEQEESEEAACGSKKRVVPGIVYLGHIPPRFRPLHVRNLLSAYGEVGRVFFQAEDRFVRRKKKAAAAAGGKKRSYTKDYTEGWVEFRDKRIAKRVAASLHNTPMGARRRSPFRYDLWNLKYLHRFTWSHLSEHLAFERQVRRQRLRAEVAQAKRETDFYLQSVERGQRFLAADGDPARPDGSWTFAQRPTEQELRARKAARPGGRERARLATAQDKARSNKGLLARIFGAPPPSESMEGPSLVRDS"}}, "key": {"[1]": {"test_system": "POLE2 WT", "assay": "Proximity labeling MS, MAC3-tagged POLE2 WT in Flp-In T-REx 293 cells", "assay_type": "cell-based, human", "conditions": "bait POLE2_WT, spectral count"}, "[2]": {"test_system": "POLE2 Y311F", "assay": "Proximity labeling MS, POLE2 Y311F", "conditions": "bait POLE2_Y311F, spectral count"}}}
{"molecule": "B1", "values": [{"measurement": "Spec", "setting": "[1]; replicate 1", "result": 9}, {"measurement": "Spec", "setting": "[1]; replicate 2", "result": 11}, {"measurement": "Spec", "setting": "[1]; replicate 3", "result": 13}, {"measurement": "Spec", "setting": "[1]; replicate 4", "result": 4}, {"measurement": "Spec", "setting": "[1]; replicate 5", "result": 2}, {"measurement": "Spec", "setting": "[2]; replicate 1", "result": 11}, {"measurement": "Spec", "setting": "[2]; replicate 2", "result": 8}]}
